Measurements published in patent US20230287071A1.

B1: … (SEQ ID NO: 2) (peptide)
peptide: EEFLRPRSL
B2: … (SEQ ID NO: 154) (peptide)
peptide: NEAGEMIKHY
B3: … (SEQ ID NO: 136) (peptide)
peptide: EEMPEEIHL
B4: … (SEQ ID NO: 114) (peptide)
peptide: VEVNGVPRW
B5: … (SEQ ID NO: 112) (peptide)
peptide: AEIEADRSYQH
B6: … (SEQ ID NO: 149) (peptide)
peptide: AETEPERHLG
B7: … (SEQ ID NO: 118) (peptide)
peptide: SEVPVDSHYY
B8: … (SEQ ID NO: 99) (peptide)
peptide: SECVKSLSF
B9: … (SEQ ID NO: 164) (peptide)
peptide: DEDGKIVGY
B10: … (SEQ ID NO: 125) (peptide)
peptide: LEVLHQGQW
B11: … (SEQ ID NO: 122) (peptide)
peptide: GESVSWHLF
B12: … (SEQ ID NO: 113) (peptide)
peptide: MEFKTLNKN
B13: … (SEQ ID NO: 139) (peptide)
peptide: AESDFSNNML
B14: … (SEQ ID NO: 131) (peptide)
peptide: RESHLTEIRQY
B15: DEINHQSL (SEQ ID NO: 123) (peptide)
peptide: DEINHQSL
B16: EKGLISAF (SEQ ID NO: 137) (peptide)
peptide: EKGLISAF
B17: EELRMLSF (SEQ ID NO: 145) (peptide)
peptide: EELRMLSF
B18: … (SEQ ID NO: 143) (peptide)
peptide: HEIIIRSHW
B19: … (SEQ ID NO: 134) (peptide)
peptide: IEIKDRLQL
B20: … (SEQ ID NO: 106) (peptide)
peptide: SVISDSPRSW
B21: … (SEQ ID NO: 146) (peptide)
peptide: MEELRMLSF
B22: … (SEQ ID NO: 101) (peptide)
peptide: SEENTGKTY
B23: … (SEQ ID NO: 133) (peptide)
peptide: IEAPKLMVV
B24: … (SEQ ID NO: 102) (peptide)
peptide: TELADLDAAW
B25: … (SEQ ID NO: 116) (peptide)
peptide: AEANPRDLGASW
B26: … (SEQ ID NO: 130) (peptide)
peptide: REYQEVMNSKL
B27: … (SEQ ID NO: 157) (peptide)
peptide: SQDVAGTTF
B28: ELVHMINW (SEQ ID NO: 97) (peptide)
peptide: ELVHMINW
B29: … (SEQ ID NO: 1) (peptide)
peptide: KEVDPASNTYTL
B30: … (SEQ ID NO: 107) (peptide)
peptide: YQENPRAAW
B31: … (SEQ ID NO: 158) (peptide)
peptide: VEEERYTGQW
B32: … (SEQ ID NO: 127) (peptide)
peptide: RYFDENIQKFIW
B33: … (SEQ ID NO: 160) (peptide)
peptide: AEIATTGQLY
B34: … (SEQ ID NO: 7) (peptide)
peptide: SESDLVNFI
B35: … (SEQ ID NO: 159) (peptide)
peptide: EEVQDGKVI
B36: … (SEQ ID NO: 115) (peptide)
peptide: QEPFTRPVL
B37: … (SEQ ID NO: 155) (peptide)
peptide: TEDARHPESW
B38: … (SEQ ID NO: 98) (peptide)
peptide: SEESAGPLL
B39: … (SEQ ID NO: 3) (peptide)
peptide: DEIFTNDRRW
B40: … (SEQ ID NO: 153) (peptide)
peptide: IEIILLSGSL
B41: … (SEQ ID NO: 126) (peptide)
peptide: SEASQSPQY
B42: … (SEQ ID NO: 129) (peptide)
peptide: EEAMKRLSY
B43: … (SEQ ID NO: 111) (peptide)
peptide: QEIDQKRLEF
B44: … (SEQ ID NO: 105) (peptide)
peptide: EEIFKTLNY
B45: … (SEQ ID NO: 124) (peptide)
peptide: NENLDYAIL
B46: … (SEQ ID NO: 119) (peptide)
peptide: VEVKYEGHW
B47: … (SEQ ID NO: 138) (peptide)
peptide: KEAPNIVTL
B48: … (SEQ ID NO: 121) (peptide)
peptide: YENIPVDKV
B49: … (SEQ ID NO: 165) (peptide)
peptide: EEIEAHIAL
B50: TELQIPSF (SEQ ID NO: 151) (peptide)
peptide: TELQIPSF
B51: … (SEQ ID NO: 161) (peptide)
peptide: GESSEVKAVL
B52: … (SEQ ID NO: 4) (peptide)
peptide: AEALGAAKKL
B53: … (SEQ ID NO: 148) (peptide)
peptide: KESDAGRYY
B54: … (SEQ ID NO: 6) (peptide)
peptide: AELVGPVIPQDW
B55: … (SEQ ID NO: 141) (peptide)
peptide: SEKWFRMGF
B56: … (SEQ ID NO: 150) (peptide)
peptide: SEVFHVSEA
B57: … (SEQ ID NO: 142) (peptide)
peptide: QELFLHPVL
B58: … (SEQ ID NO: 110) (peptide)
peptide: EVEVGEVKSW
B59: … (SEQ ID NO: 144) (peptide)
peptide: IEAYLERIGY
B60: … (SEQ ID NO: 163) (peptide)
peptide: AEDEDGKIVGY
B61: … (SEQ ID NO: 135) (peptide)
peptide: QEIDRGQYI
B62: … (SEQ ID NO: 108) (peptide)
peptide: QETNKVETY
B63: … (SEQ ID NO: 103) (peptide)
peptide: AELFLTKSF
B64: … (SEQ ID NO: 147) (peptide)
peptide: RMLSFQQMTW
B65: … (SEQ ID NO: 132) (peptide)
peptide: AESFTSGRHYW
B66: … (SEQ ID NO: 140) (peptide)
peptide: TEHSGIYSC
B67: … (SEQ ID NO: 117) (peptide)
peptide: SEVPVDSHY
B68: … (SEQ ID NO: 162) (peptide)
peptide: EAYDIELNKW
B69: HENLIEDF (SEQ ID NO: 152) (peptide)
peptide: HENLIEDF
B70: … (SEQ ID NO: 128) (peptide)
peptide: TELTEARVQVW

molecular target: HLA-B*44:05 (human); test: UV peptide-exchange ELISA, yield grade

binding, binds:
B1, B2, B3, B4, B5, B6, B7, B8, B9, B10, B11, B12, B13, B14, B15, B16, B17, B18, B19, B20, B21, B22, B23, B24, B25, B26, B27, B28, B29, B30, B31, B32, B33, B34, B35, B36, B37, B38, B39, B40, B41, B42, B43, B44, B45, B46, B47, B48, B49, B50, B51, B52, B53, B54, B55, B56, B57, B58, B59, B60, B61, B62, B63, B64, B65, B66, B67, B68, B69, B70

These are yes or no findings as the source states them, for the method shown. Binding can be weak; no strength is given.
